Data reported in doi:10.1101/2024.06.27.601040 (bioRxiv, 2024).
These are yes or no findings as the source states them, for the method shown. Binding seen in cells or lysates may run through a third protein. Some entries that bind do so weakly or less than the wild type.

Chains of the proteins cited; added tags and fusions are not shown.
UniProt Q14764: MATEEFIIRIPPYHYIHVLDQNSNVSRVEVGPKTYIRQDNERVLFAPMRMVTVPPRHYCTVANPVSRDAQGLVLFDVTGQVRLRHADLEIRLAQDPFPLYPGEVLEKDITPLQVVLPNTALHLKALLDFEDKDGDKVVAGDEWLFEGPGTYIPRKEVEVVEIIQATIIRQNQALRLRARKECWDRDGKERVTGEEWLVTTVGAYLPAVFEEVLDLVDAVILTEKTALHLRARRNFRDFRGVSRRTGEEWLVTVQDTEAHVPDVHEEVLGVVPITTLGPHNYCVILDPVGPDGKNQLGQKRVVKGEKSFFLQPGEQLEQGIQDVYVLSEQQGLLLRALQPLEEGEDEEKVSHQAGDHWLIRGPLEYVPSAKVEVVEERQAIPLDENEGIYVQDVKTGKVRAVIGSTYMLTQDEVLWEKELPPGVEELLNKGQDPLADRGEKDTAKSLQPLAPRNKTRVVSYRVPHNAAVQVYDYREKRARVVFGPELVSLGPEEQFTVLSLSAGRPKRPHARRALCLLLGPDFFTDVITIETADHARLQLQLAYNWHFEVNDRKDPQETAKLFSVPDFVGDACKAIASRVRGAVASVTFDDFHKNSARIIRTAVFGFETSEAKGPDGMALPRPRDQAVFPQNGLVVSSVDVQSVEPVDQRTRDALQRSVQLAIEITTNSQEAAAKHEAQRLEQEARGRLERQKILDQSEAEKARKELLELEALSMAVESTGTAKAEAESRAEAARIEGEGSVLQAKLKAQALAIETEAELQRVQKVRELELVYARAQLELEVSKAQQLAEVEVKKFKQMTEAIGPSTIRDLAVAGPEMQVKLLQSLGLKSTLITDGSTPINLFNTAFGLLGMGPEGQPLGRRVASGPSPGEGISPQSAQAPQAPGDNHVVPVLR
UniProt Q9UKK3: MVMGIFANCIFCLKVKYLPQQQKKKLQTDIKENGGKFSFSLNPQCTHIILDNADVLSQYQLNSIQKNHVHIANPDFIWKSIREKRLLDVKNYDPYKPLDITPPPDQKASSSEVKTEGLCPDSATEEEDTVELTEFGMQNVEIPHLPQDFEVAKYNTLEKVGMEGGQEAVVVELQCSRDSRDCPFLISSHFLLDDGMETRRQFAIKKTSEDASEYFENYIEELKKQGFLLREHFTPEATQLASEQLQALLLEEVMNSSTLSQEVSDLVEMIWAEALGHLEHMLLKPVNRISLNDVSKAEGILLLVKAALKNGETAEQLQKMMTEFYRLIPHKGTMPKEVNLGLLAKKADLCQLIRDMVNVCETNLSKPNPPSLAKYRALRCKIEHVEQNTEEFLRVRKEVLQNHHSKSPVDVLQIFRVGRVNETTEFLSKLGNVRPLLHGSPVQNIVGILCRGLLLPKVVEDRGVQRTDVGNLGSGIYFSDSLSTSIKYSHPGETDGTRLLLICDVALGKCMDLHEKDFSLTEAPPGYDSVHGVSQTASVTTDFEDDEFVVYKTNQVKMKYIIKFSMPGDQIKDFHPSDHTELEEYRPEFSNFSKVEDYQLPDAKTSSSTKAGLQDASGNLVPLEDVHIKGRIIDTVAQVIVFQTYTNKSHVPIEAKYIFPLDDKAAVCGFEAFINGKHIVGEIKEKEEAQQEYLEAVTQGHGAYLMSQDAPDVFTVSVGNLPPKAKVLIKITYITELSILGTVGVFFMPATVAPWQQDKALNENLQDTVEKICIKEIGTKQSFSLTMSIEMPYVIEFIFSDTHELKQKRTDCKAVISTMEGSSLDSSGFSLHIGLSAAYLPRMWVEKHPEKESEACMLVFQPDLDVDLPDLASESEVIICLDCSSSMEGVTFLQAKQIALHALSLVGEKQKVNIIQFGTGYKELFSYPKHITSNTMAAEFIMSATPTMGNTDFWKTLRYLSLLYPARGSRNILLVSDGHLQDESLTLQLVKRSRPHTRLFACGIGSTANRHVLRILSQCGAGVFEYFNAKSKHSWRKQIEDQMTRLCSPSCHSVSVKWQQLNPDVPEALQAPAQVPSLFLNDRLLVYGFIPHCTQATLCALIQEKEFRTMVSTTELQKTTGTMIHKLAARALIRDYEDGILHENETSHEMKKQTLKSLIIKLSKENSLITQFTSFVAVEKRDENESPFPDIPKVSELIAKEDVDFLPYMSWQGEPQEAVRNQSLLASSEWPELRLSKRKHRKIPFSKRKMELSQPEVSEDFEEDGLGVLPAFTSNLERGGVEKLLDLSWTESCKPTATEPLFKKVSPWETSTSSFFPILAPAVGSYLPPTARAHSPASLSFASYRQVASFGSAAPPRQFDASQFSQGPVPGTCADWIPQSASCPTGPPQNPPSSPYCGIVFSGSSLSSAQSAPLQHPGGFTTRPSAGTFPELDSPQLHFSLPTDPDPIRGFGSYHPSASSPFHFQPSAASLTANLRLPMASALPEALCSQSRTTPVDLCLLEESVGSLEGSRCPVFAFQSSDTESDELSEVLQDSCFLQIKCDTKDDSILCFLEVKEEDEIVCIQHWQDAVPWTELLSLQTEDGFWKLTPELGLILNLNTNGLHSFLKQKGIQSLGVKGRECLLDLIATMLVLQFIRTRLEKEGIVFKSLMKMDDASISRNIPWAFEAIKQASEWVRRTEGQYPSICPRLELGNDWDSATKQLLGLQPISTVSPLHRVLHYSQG

Target: endogenous MVP (native vault) of A549 cells (human (endogenous in A549)) (UniProt Q14764)
Test: co-IP

endogenous PARP4 of A549 cells (from UniProt Q9UKK3 1-1724) (enzyme)
binding: binds
